# Experimental data published in the supplement of paper PMC8728848.
# Some of the results follow.
# B1: SHCBP1-GST (Homo sapiens), Q8NEM2 (protein)
# chain: MADGSLTGGGLEAAAMAPERMGWAVEQELASLEKGLFQDEDSCSDCSYRDKPGSSLQSFMPEGKTFFPEIFQTNQLLFYERFRAYQDYILADCKASEVQEFTAEFLEKVLEPSGWRAVWHTNVFKVLVEITDVDFAALKAVVRLAEPYLCDSQVSTFTMECMKELLDLKEHRLPLQELWVVFDDSGVFDQTALAIEHVRFFYQNIWRSWDEEEEDEYDYFVRCVEPRLRLHYDILEDRVPSGLIVDYHNLLSQCEESYRKFLNLRSSLSNCNSDSEQENISMVEGLKLYSEMEQLKQKLKLIENPLLRYVFGYQKNSNIQAKGVRSSGQKITHVVSSTMMAGLLRSLLTDRLCQEPGEEEREIQFHSDPLSAINACFEGDTVIVCPGHYVVHGTFSIADSIELEGYGLPDDIVIEKRGKGDTFVDCTGADIKISGIKFVQHDAVEGILIVHRGKTTLENCVLQCETTGVTVRTSAEFLMKNSDLYGAKGAGIEIYPGSQCTLSDNGIHHCKEGILIKDFLDEHYDIPKISMVNNIIHNNEGYGVVLVKPTIFSDLQENAEDGTEENKALKIQTSGEPDVAERVDLEELIECATGKMELCARTDPSEQVEGNCEIVNELIAASTQKGQIKKKRLSELGITQADDNLMSQEMFVGIVGNQFKWNGKGSFGTFLF
# Assays:
# Experiment in all cases: glycan array binding signal (z-score within array); higher = stronger binding
# Settings in all cases: glycan notation: IUPAC condensed, linker removed
# [1] = target: GlcNAc(b1-3)Gal(b1-4)GlcNAc(b1-3)Gal(b1-4)GlcNAc(b1-3)Gal(b1-4)GlcNAc(b1-3)Gal(b1-4)GlcNAc(b1-2)[GlcNAc(b1-3)Gal(b1-4)GlcNAc(b1-3)Gal(b1-4)GlcNAc(b1-3)Gal(b1-4)GlcNAc(b1-3)Gal(b1-4)GlcNAc(b1-6)]Man(a1-6)[GlcNAc(b1-3)Gal(b1-4)GlcNAc(b1-3)Gal(b1-4)GlcNAc(b1-3)Gal(b1-4)GlcNAc(b1-3)Gal(b1-4)GlcNAc(b1-2)Man(a1-3)]Man(b1-4)GlcNAc(b1-4)[Fuc(a1-6)]GlcNAc
# Procedure, shortened: (§1)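 Arrays were curated from the Consortium for Functional Glycomics database, 3228 in total, and kept only where the protein sequence was available. Binding is expressed as a within-array Z-score. This score was averaged across arrays of the same protein sequence at different concentrations or buffers and across linkers, and negative values can be read as non-binding.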
# [2] = target: GlcNAc(b1-3)Gal(b1-4)GlcNAc(b1-3)Gal(b1-4)GlcNAc(b1-3)GalNAc
# Procedure, shortened: as §1
# [3] = target: GlcNAc(b1-3)Gal(b1-4)GlcNAc(b1-3)GalNAc
# Procedure, shortened: as §1
# [4] = target: GlcNAc(b1-3)Gal(b1-4)GlcNAc(b1-3)[GlcNAc(b1-3)Gal(b1-4)GlcNAc(b1-3)]GalNAc
# Procedure, shortened: as §1
# [5] = target: GlcNAc(b1-3)Gal(b1-4)GlcNAc(b1-6)[Gal(b1-3)]GalNAc
# Procedure, shortened: as §1
# [6] = target: GlcNAc(b1-3)Gal(b1-4)GlcNAc(b1-6)[GlcNAc(b1-3)Gal(b1-3)]GalNAc
# Procedure, shortened: as §1
# [7] = target: GlcNAc(b1-3)Gal(b1-4)GlcNAc(b1-6)[GlcNAc(b1-3)]Gal(b1-4)GlcNAc
# Procedure, shortened: as §1
# GlcNAc(b1-3)GalNAc = target: GlcNAc(b1-3)GalNAc
# Procedure, shortened: as §1
# GlcNAc(b1-3)Man = target: GlcNAc(b1-3)Man
# Procedure, shortened: as §1
# [8] = target: GlcNAc(b1-3)[GlcNAc(b1-4)][GlcNAc(b1-6)]GlcNAc
# Procedure, shortened: as §1
# [9] = target: GlcNAc(b1-3)[GlcNAc(b1-6)]Gal(b1-4)GlcNAc
# Procedure, shortened: as §1
# [10] = target: GlcNAc(b1-3)[GlcNAc(b1-6)]GalNAc
# Procedure, shortened: as §1
# [11] = target: GlcNAc(b1-4)Gal(b1-4)GlcNAc
# Procedure, shortened: as §1
# GlcNAc(b1-4)GlcNAc = target: GlcNAc(b1-4)GlcNAc
# Procedure, shortened: as §1
# [12] = target: GlcNAc(b1-4)GlcNAc(b1-4)GlcNAc
# Procedure, shortened: as §1
# [13] = target: GlcNAc(b1-4)GlcNAc(b1-4)GlcNAc(b1-4)GlcNAc(b1-4)GlcNAc
# Procedure, shortened: as §1
# [14] = target: GlcNAc(b1-4)GlcNAc(b1-4)GlcNAc(b1-4)GlcNAc(b1-4)GlcNAc(b1-4)GlcNAc
# Procedure, shortened: as §1
# [15] = target: GlcNAc(b1-4)[GlcNAc(b1-6)]GalNAc
# Procedure, shortened: as §1
# [16] = target: GlcNAc(b1-6)Gal(b1-4)GlcNAc
# Procedure, shortened: as §1
# GlcNAc(b1-6)GalNAc = target: GlcNAc(b1-6)GalNAc
# Procedure, shortened: as §1
# [17] = target: GlcNAc6S(b1-3)Gal(b1-4)GlcNAc
# Procedure, shortened: as §1
# Kdn(a2-3)Gal(b1-3)GalNAc = target: Kdn(a2-3)Gal(b1-3)GalNAc
# Procedure, shortened: as §1
# Kdn(a2-3)Gal(b1-3)GlcNAc = target: Kdn(a2-3)Gal(b1-3)GlcNAc
# Procedure, shortened: as §1
# Kdn(a2-3)Gal(b1-4)Glc = target: Kdn(a2-3)Gal(b1-4)Glc
# Procedure, shortened: as §1
# Kdn(a2-3)Gal(b1-4)GlcNAc = target: Kdn(a2-3)Gal(b1-4)GlcNAc
# Procedure, shortened: as §1
# [18] = target: Kdn(a2-3)Gal(b1-4)[Fuc(a1-3)]GlcNAc
# Procedure, shortened: as §1
# Kdn(a2-6)Gal(b1-4)GlcNAc = target: Kdn(a2-6)Gal(b1-4)GlcNAc
# Procedure, shortened: as §1
# [19] = target: Man(a1-2)Man(a1-2)Man(a1-3)Man
# Procedure, shortened: as §1
# [20] = target: Man(a1-2)Man(a1-2)Man(a1-6)[Man(a1-3)]Man
# Procedure, shortened: as §1
# Man(a1-2)Man(a1-3)Man = target: Man(a1-2)Man(a1-3)Man
# Procedure, shortened: as §1
binder,measurement,setting,value
B1,glycan array binding signal (z-score),[1],-0.149
same,glycan array binding signal (z-score),[2],-0.818
same,glycan array binding signal (z-score),[3],-0.518
same,glycan array binding signal (z-score),[4],-0.256
same,glycan array binding signal (z-score),[5],-0.133
same,glycan array binding signal (z-score),[6],0.071
same,glycan array binding signal (z-score),[7],-0.274
same,glycan array binding signal (z-score),GlcNAc(b1-3)GalNAc,-0.236
same,glycan array binding signal (z-score),GlcNAc(b1-3)Man,-0.054
same,glycan array binding signal (z-score),[8],0.38
same,glycan array binding signal (z-score),[9],-0.533
same,glycan array binding signal (z-score),[10],-0.212
same,glycan array binding signal (z-score),[11],-0.317
same,glycan array binding signal (z-score),GlcNAc(b1-4)GlcNAc,-0.48
same,glycan array binding signal (z-score),[12],-0.309
same,glycan array binding signal (z-score),[13],0.42
same,glycan array binding signal (z-score),[14],0.962
same,glycan array binding signal (z-score),[15],0.29
same,glycan array binding signal (z-score),[16],-0.158
same,glycan array binding signal (z-score),GlcNAc(b1-6)GalNAc,-0.109
same,glycan array binding signal (z-score),[17],0.355
same,glycan array binding signal (z-score),Kdn(a2-3)Gal(b1-3)GalNAc,0.023
same,glycan array binding signal (z-score),Kdn(a2-3)Gal(b1-3)GlcNAc,-0.385
same,glycan array binding signal (z-score),Kdn(a2-3)Gal(b1-4)Glc,-0.831
same,glycan array binding signal (z-score),Kdn(a2-3)Gal(b1-4)GlcNAc,0.202
same,glycan array binding signal (z-score),[18],1.24
same,glycan array binding signal (z-score),Kdn(a2-6)Gal(b1-4)GlcNAc,-0.319
same,glycan array binding signal (z-score),[19],-1.13
same,glycan array binding signal (z-score),[20],-0.665
same,glycan array binding signal (z-score),Man(a1-2)Man(a1-3)Man,0.14

# In a second layout: entries from further up.
binder	measurement	setting	value
B1	glycan array binding signal (z-score)	[3]	-0.518
same	glycan array binding signal (z-score)	[11]	-0.317
same	glycan array binding signal (z-score)	GlcNAc(b1-4)GlcNAc	-0.48
same	glycan array binding signal (z-score)	[12]	-0.309
same	glycan array binding signal (z-score)	[15]	0.29
same	glycan array binding signal (z-score)	[16]	-0.158
same	glycan array binding signal (z-score)	Kdn(a2-3)Gal(b1-4)GlcNAc	0.202
